Measured values taken from paper PMC4836274.
No constants are given. Whether binding was seen depends on the method and setting. For some assays here: Binding seen in cells or lysates may run through a third protein. Some results given as binding are weak or reduced against the parent protein; the word gives no strength. For some assays here: Tags and fused reporters may be left off the sequences shown.

Protein sequences, listed by entry. Tags and fused reporters are not part of them. Lines headed by an entry give the natural chain unless they say otherwise; changes in a name come on top. Residues count along the entry.
UniProt Q92673: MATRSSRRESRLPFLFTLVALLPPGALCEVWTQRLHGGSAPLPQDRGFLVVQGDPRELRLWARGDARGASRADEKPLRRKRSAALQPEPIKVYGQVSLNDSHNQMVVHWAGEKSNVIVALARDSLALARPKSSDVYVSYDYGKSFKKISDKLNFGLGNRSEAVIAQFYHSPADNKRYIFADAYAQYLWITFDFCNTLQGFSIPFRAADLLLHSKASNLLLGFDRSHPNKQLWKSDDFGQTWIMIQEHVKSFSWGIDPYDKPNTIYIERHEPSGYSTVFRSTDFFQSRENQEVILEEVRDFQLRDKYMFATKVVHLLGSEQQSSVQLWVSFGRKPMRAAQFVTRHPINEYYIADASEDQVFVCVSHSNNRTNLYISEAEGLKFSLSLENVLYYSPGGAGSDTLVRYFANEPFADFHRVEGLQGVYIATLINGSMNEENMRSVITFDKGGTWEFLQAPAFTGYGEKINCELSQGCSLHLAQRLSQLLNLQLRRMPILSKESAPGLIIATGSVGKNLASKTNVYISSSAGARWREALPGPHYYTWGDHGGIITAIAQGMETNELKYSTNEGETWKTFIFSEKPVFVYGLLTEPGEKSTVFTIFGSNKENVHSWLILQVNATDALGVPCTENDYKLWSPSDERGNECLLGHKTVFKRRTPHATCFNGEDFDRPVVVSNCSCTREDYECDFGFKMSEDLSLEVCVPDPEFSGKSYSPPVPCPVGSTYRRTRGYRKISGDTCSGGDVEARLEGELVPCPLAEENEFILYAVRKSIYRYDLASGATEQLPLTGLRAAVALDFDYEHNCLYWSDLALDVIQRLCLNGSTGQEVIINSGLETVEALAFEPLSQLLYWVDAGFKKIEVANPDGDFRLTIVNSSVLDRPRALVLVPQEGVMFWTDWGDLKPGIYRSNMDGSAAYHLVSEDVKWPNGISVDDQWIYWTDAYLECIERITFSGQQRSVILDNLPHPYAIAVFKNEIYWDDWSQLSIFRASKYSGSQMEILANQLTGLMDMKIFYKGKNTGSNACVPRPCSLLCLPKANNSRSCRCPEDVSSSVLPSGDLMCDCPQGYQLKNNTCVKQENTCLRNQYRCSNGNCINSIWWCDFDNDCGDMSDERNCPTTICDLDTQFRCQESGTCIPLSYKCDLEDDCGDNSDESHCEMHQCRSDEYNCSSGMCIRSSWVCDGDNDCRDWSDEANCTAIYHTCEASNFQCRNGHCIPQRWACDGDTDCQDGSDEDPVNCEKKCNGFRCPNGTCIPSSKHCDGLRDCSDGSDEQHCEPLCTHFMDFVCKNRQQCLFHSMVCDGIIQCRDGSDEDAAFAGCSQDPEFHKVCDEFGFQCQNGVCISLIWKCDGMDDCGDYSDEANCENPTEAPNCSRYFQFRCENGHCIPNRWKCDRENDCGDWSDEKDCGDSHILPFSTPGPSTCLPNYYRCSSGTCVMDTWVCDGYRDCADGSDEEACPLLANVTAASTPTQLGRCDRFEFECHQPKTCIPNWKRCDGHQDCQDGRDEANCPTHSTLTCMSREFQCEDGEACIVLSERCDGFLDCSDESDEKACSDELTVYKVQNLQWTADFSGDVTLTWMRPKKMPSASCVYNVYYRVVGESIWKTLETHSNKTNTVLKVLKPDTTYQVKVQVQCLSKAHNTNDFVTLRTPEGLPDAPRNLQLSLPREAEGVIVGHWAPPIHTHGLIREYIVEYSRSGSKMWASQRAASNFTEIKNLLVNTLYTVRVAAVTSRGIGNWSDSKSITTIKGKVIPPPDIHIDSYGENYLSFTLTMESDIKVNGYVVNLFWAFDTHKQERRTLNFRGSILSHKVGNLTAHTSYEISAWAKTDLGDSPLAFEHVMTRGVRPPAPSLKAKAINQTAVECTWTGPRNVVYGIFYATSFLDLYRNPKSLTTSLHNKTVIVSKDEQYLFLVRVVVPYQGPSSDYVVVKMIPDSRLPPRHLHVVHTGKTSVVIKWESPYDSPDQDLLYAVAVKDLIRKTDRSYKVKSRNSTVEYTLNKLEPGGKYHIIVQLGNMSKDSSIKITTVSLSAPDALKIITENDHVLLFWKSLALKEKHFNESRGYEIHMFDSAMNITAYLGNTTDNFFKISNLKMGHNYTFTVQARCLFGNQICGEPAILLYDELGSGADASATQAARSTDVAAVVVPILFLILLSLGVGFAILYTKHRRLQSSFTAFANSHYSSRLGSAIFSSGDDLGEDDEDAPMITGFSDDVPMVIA
soluble sorLA (entire luminal part of sorLA): residues 82-2137 of Q92673
UniProt P30533, residues 35-357: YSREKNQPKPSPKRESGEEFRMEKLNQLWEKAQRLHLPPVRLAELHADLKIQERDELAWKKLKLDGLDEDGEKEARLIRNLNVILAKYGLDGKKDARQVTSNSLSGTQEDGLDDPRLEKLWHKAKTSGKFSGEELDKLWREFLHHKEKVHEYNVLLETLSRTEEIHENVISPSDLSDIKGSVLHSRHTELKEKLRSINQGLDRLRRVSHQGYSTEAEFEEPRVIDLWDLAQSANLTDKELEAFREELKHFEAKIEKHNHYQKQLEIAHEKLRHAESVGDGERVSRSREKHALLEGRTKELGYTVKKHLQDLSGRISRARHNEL

Experiments:
[1] = target: soluble sorLA (entire luminal part of sorLA) (human) (UniProt Q92673); test: SPR; immobilised sorLA preincubated with buffer or with 5 μM inhibitor (sorLA propeptide or RAP) before the ligand was added; both purified
CNTFRα-Myc (human) = target: T1, CNTFRα-Myc (human) (UniProt P26992); test: cross-linking + co-IP; HEK293 double transfectants cross-linked with DSP, lysed in 1% Triton X-100, precipitated with anti-sorLA or anti-Myc, SDS-PAGE with and without DTT, immunoblot
T1 sequence: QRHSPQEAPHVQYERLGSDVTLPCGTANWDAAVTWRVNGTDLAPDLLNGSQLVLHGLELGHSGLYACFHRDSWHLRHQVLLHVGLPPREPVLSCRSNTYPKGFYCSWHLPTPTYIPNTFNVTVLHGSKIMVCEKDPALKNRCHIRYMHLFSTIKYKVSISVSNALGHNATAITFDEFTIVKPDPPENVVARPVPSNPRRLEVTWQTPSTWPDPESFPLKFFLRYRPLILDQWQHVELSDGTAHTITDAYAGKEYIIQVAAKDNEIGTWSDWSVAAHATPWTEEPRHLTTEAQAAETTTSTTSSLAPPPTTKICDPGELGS

Row | binding [1] | binding (CNTFRα-Myc (human)) | Substance
1 | binds |  | receptor-associated protein (from UniProt P30533 35-357)
2 |  | binds | full-length sorLA in transfected HEK293 cells (from UniProt Q92673 82-2214) (receptor)
